Test results reported in PubChem BioAssay AID1487 (National Center for Advancing Translational Sciences (NCATS), 2009).
This is one part of the list. The main result of the screen is listed elsewhere. These columns were measured beside it and carry no call. Most of these compounds were active or inconclusive in the main read-out, so they are no random draw. Words in brackets tell the shape of the fitted curve; partial curves, single points and poor fits give uncertain potencies.

Assay: qHTS Assay for Modulators of Lamin A Splicing
Details: HeLa LMNA splicing GFP/RFP minigene ratio, 48 h
In short: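 S3 HeLa stable clones carrying a lamin A-EGFP splicing minigene plus DsRed2 were seeded at 600 cells/well in Opti-MEM with 2% FBS, pin-dosed and incubated 48 h at 37°C. Acumen cytometry (488 nm) gave the GFP/RFP total-intensity ratio.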

[1] = measured here: RFP viability control channel
[2] = measured here: GFP splicing reporter channel

| Compound | AC50 [1] | AC50 [2] |
| --- | --- | --- |
| Nc1ncnc2c1ncn2C1CC(O)C(CO)O1 (stereo unspecified) | 0.501 µM [falling, single point] | – |
| COc1ccc(N2CCN(Cc3nc(N)nc(Nc4ccccc4OC)n3)CC2)cc1 | 35.5 µM [rising, single point] | – |
| O=C(CSc1n[nH]c(=O)n1C1CC1)Nc1cc(Cl)ccc1Oc1ccccc1 | 12.6 µM [rising, partial curve] | 6.31 µM [rising, partial curve, poor fit] |
| Cc1ccc(NC(=O)CC2C(=O)N(Cc3ccccc3)C(=S)N2NC(=O)c2ccccc2)c(C)c1 (stereo unspecified) | 35.5 µM [rising, single point] | – |
| C=CCNCCCCOc1ccc(Br)cc1C | 0.02 µM [rising, full curve, poor fit] | 17.8 µM [rising, partial curve] |
| COc1ccc(/C=N/NC(=S)SC)cc1OC | 3.98 µM [rising, full curve] | – |
| O=C(c1cc(Br)c(Br)s1)N1CCN(C/C=C/c2ccccc2)CC1 | 31.6 µM [rising, single point] | 35.5 µM [rising, single point] |
| COc1ccccc1CNS(=O)(=O)c1cc(C(=O)Nc2cccc(C(F)(F)F)c2)ccc1F | 12.6 µM [falling, single point] | 35.5 µM [falling, single point] |
| CCOc1ccc(OCC)c(NC(=O)CN2CCN(c3cccc(C)c3)C(C)C2)c1 (stereo unspecified) | 31.6 µM [rising, single point] | 15.8 µM [rising, single point] |
| C=CCN1C(=O)N/C(=C/c2ccc(N3CCOCC3)o2)C1=O | 35.5 µM [rising, single point] | 15.8 µM [rising, single point] |
| Cc1cc(C(=O)CSc2nc(N)cc(=O)[nH]2)c(C)n1CCc1ccc(Cl)cc1 | 35.5 µM [rising, single point] | – |
| Cc1ccc([N+](=O)[O-])cc1NC(=O)CN1CCC(C)CC1 | – | 35.5 µM [rising, single point] |
| COc1ccc(OC)c(C(=O)CSc2nnc(Cc3cccs3)n2CCc2ccccc2)c1 | 25.1 µM [falling, single point] | 22.4 µM [falling, single point] |
| CC1CCCC(NC(=O)C2CCCN2S(=O)(=O)c2cccc3nsnc23)C1C (stereo unspecified) | 35.5 µM [rising, single point] | – |
| COc1ccc(/C=N/NC(=O)c2cc(-c3cccn3C)n[nH]2)cc1OC | 11.2 µM [rising, partial curve, poor fit] | – |
| COc1ccc(N2CCN(C(=O)c3cccc(N4C(=O)C5CC=CC(C)C5C4=O)c3)CC2)cc1 (stereo unspecified) | 0.562 µM [falling, full curve, poor fit] | 12.6 µM [falling, partial curve, poor fit] |
| C1OCOCO1 | – | 3.16 µM [rising, single point] |
| Cc1ccc(OCCn2c(Br)nc3c2c(=O)n(C)c(=O)n3C)cc1 | 2.82 µM [rising, full curve] | 3.55 µM [rising, full curve, poor fit] |
| CCN(C(=S)Nc1cccnc1)c1cccc2ccccc12 | 0.0316 µM [falling, full curve, poor fit] | – |
| O=C(Nc1ccc(F)c(F)c1)c1ccc2c(c1)OCO2 | 35.5 µM [rising, single point] | – |
| CCO[C@H]1O[C@@H]([C@H](COCc2ccccc2)OCc2ccccc2)[C@@H](OCc2ccccc2)[C@H]1O | 0.00316 µM [falling, full curve, poor fit] | 0.00282 µM [falling, full curve, poor fit] |
| O=C(Nc1ccc2nc(SCC(=O)N3CCCc4ccccc43)sc2c1)c1cccc(F)c1 | – | 35.5 µM [falling, partial curve] |
| Nc1ccccc1C(=O)/C=C/c1ccc2c(c1)OCO2 | 10 µM [rising, partial curve] | – |
| CC(C)[C@H](NS(=O)(=O)c1ccccc1)C(=O)OCC(=O)N1N=C(c2ccc(Cl)cc2)CC1c1ccco1 (stereo partly specified) | 15.8 µM [rising, partial curve] | – |
| CCOc1ccc2c(c1)-c1c(ssc1=S)C(C)(C)N2C(=O)CSC1=NCCS1 | 14.1 µM [rising, partial curve, poor fit] | 10 µM [rising, partial curve, poor fit] |
| N#Cc1c(SCc2cccc(Cl)c2)sc(C(=O)c2ccccc2)c1N | 14.1 µM [rising, single point] | 12.6 µM [rising, partial curve] |

| Compound | AC50 [1] | AC50 [2] |
| --- | --- | --- |
| CC(=O)Nc1cn(-c2ccccc2)nc1-c1ccccc1 | 2.82 µM [falling, partial curve] | 17.8 µM [falling, partial curve, poor fit] |
| CCC(C)C(=O)Nc1cc(C(=O)OC)ccc1C(=O)OC (stereo unspecified) | 5.62 µM [falling, single point] | 5.62 µM [falling, single point] |
| CCOC(=O)c1c(C)[nH]c(C(=O)OCCOc2ccccc2C)c1C | 0.355 µM [rising, full curve, poor fit] | – |
| COc1ccc(/C=C/C(=O)c2ccc(NC(=O)c3cccs3)cc2)cc1OC | 35.5 µM [falling, single point] | 17.8 µM [falling, single point] |
| O=C(Nn1c(C2CCCCC2)nc2ccccc2c1=O)c1ccc([N+](=O)[O-])cc1Cl | 12.6 µM [rising, single point] | 10 µM [rising, single point] |
| Cc1cccc(/C=N/Nc2ccc3ccccc3n2)c1 | 4.47 µM [rising, partial curve, poor fit] | – |
| COc1ccc(NC(=O)CC2C(=O)N(c3ccc(Cl)cc3)C(=S)N2CCc2ccccn2)cc1 (stereo unspecified) | – | 2.82 µM [falling, single point] |
| COc1ccc2[nH]c(C)c(CCNc3ccc(C(F)(F)F)cc3[N+](=O)[O-])c2c1 | 22.4 µM [rising, single point] | 14.1 µM [rising, single point] |
| O=C1c2cccc3c(N4CCCCC4)ccc(c23)C(=O)N1c1ccc(O)cc1 | 0.0224 µM [rising, full curve] | 0.141 µM [rising, full curve, poor fit] |
| Cc1cccc(CSc2ncc(CO)n2Cc2ccc(F)cc2)c1 | – | 0.0251 µM [rising, full curve, poor fit] |
| O=[N+]([O-])c1cc(S(=O)(=O)Nc2cccc(C(F)(F)F)c2)ccc1-n1nnc2ccccc21 | 11.2 µM [rising, partial curve] | – |
| COc1cc(Br)c(CCNC(=O)c2ccco2)cc1OC | 0.141 µM [falling, full curve, poor fit] | 0.0316 µM [falling, full curve, poor fit] |
| Clc1ccc(CSCCc2ccncc2)cc1 | 31.6 µM [rising, single point] | 35.5 µM [rising, single point] |
| COCCn1c(SCC(=O)Nc2ncc(C)s2)nc2sc3c(c2c1=O)CCC3 | 25.1 µM [rising, single point] | 15.8 µM [rising, single point] |
| CN(C)c1ccc(/C=C/c2ccc3ccccc3[n+]2C)cc1 | 1.78 µM [rising, full curve] | 35.5 µM [falling, single point] |
| COc1ccc(NC(=S)NCc2ccc3c(c2)cc(C)n3C)cc1 | 17.8 µM [rising, single point] | – |
| CCC1C(C#N)=C(SC)NC2=C1C(=O)CC(C)(C)C2 (stereo unspecified) | 22.4 µM [rising, partial curve] | 15.8 µM [rising, single point] |
| COc1ccccc1N(C)S(=O)(=O)c1ccc(C(=O)OC(C)C(=O)NCc2ccc3c(c2)OCO3)cc1 (stereo unspecified) | 6.31 µM [rising, partial curve] | – |
| NS(=O)(=O)c1ccc(CCNc2ncnc3sccc23)cc1 | 7.94 µM [rising, partial curve] | 15.8 µM [rising, partial curve] |
| CCCc1ncc(C[n+]2ccccc2C)c(N)n1 | 0.0112 µM [rising, full curve] | 0.0251 µM [rising, full curve, poor fit] |
| Cn1nc(C(F)(F)F)c(C(=O)Nc2cccc(C(F)(F)F)c2)c1SCc1ccc(Cl)cc1 | 35.5 µM [falling, single point] | – |
| Cc1cc(C)c(NC(=O)c2cc(CN3CCOCC3)on2)c(C)c1 | 6.31 µM [falling, partial curve, poor fit] | 0.0178 µM [falling, full curve, poor fit] |
| Clc1ccc(CCNc2ncnc3nc[nH]c23)cc1 | 0.0447 µM [falling, full curve] | 0.00562 µM [falling, full curve, poor fit] |
| C=CC(=O)NCC1OCCc2ccccc21 (stereo unspecified) | 12.6 µM [falling, partial curve, poor fit] | – |
| COc1ccc(N(Cc2ccccc2)C(=O)c2ccccc2[N+](=O)[O-])cc1 | 35.5 µM [rising, single point] | 31.6 µM [rising, single point] |
| N#Cc1c(NC(=O)C2CC(c3c(F)cccc3Cl)=NO2)sc2c1CCC2 (stereo unspecified) | 22.4 µM [rising, partial curve] | 14.1 µM [rising, single point] |

Exported field by field: entries from further up
COc1cc(Br)c(CCNC(=O)c2ccco2)cc1OC
  AC50 [1]: 0.141 µM [falling, full curve, poor fit]; AC50 [2]: 0.0316 µM [falling, full curve, poor fit]
CCC1C(C#N)=C(SC)NC2=C1C(=O)CC(C)(C)C2 (stereo unspecified)
  AC50 [1]: 22.4 µM [rising, partial curve]; AC50 [2]: 15.8 µM [rising, single point]

Two of the compounds above, bar-delimited.
Compound | AC50 [1] | AC50 [2]
Cc1cc(C)c(NC(=O)c2cc(CN3CCOCC3)on2)c(C)c1 | 6.31 µM [falling, partial curve, poor fit] | 0.0178 µM [falling, full curve, poor fit]
C=CC(=O)NCC1OCCc2ccccc21 (stereo unspecified) | 12.6 µM [falling, partial curve, poor fit] | –
